Some of the results follow.

Chains of the proteins cited; added tags and fusions are not shown.
UniProt Q0JBA9, entry or part of it: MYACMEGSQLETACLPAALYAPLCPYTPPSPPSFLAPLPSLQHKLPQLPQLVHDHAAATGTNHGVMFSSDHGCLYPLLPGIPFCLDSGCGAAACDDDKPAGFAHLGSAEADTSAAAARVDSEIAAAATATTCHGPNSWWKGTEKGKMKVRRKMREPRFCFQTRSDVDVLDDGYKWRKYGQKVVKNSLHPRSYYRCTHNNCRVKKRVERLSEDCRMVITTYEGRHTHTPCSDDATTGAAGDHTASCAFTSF

Binding signal data for 42 sequences are collected here from publication PMC7819943, “Rice protein-binding microarrays: a tool to detect cis-acting elements near promoter regions in rice”.

This experiment addresses OsWRKY34 (Oryza sativa, UniProt Q0JBA9 1-250). The experiment in a line: protein-binding microarray (RPBM); PBS, 2% BSA, 51.3 ng/ul salmon testes DNA, 50 uM zinc acetate, 200 nM TF, 25 C, 1 h; high values mean tight binding. Particulars: protein: recombinant; tags: N-terminal polyhistidine and DsRed monomer fusion (pET32a); label: CyDye5-dUTP incorporated in the synthesized complementary strand; 3' TTTTT single-stranded linker to array surface; dsDNA, one strand shown. Summed up:
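The binding signal is fluorescence intensity per array feature (arbitrary units). Readings came from an Axon 4000B scanner after a washed, 2% BSA-blocked, double-stranded custom Agilent array had been incubated for 1 h at 25 °C with 200 nM protein and 50 µM zinc acetate. The protein was a Ni–NTA-purified transcription factor fused N-terminally to polyhistidine and DsRed, expressed in E. coli BL21-CodonPlus.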
As to “CTCTGCCGCGATCTCTCTCTCTCTCTCTCTCCTCCCATCCCGGAGTCACCTAGTGCAG”, the binding signal is 10400 fluorescence intensity (a.u.).
“GCATTGTTTTTATTTAGCCTGTTTAATATTATAGCCAACTCGGAGTCACCTAGTGCAG”: the binding signal is 8720 fluorescence intensity (a.u.).
As to “TATTACTCCCTTCGTATTTTAATGTATGACGCCGTTGACTCGGAGTCACCTAGTGCAG”, the binding signal was 8820 fluorescence intensity (a.u.).
The figure for “CACCAGCTTATACTCTCTCTCTCTCTCTCTCTCTCGTCGACGGAGTCACCTAGTGCAG” is 11000 fluorescence intensity (a.u.).
The figure for “CTTTTTATTTCCTCTCTCTCCCTTATCCTCTCTTCTCTCACGGAGTCACCTAGTGCAG” is 8730 fluorescence intensity (a.u.); for “GAAGCTAGTAGGTGTTAGTGGGAGGGAGGGGCCAAGAATGCGGAGTCACCTAGTGCAG” it is 11500 fluorescence intensity (a.u.); for “CCGCTGCTCCACCTGCGCCGCCGTCCTGTCGTCCCCGAAGCGGAGTCACCTAGTGCAG” it is 8230 fluorescence intensity (a.u.).
The figure for “TCTCCATCGTATTATAAGTCGTTTGACTTTTTTACTAGTCCGGAGTCACCTAGTGCAG” is 14700 fluorescence intensity (a.u.); for “TACAGCATCCTCATCCTCTTTCTACTACTATTGATCTTCTCGGAGTCACCTAGTGCAG” it is 11200 fluorescence intensity (a.u.); for “AGTAATTTTTCTTCCGCTTAGCCAAATTGTCACCACTTAACGGAGTCACCTAGTGCAG” it is 9040 fluorescence intensity (a.u.).
As to “CACCATCAGCACGTAGAACTCCACCTTGCTCAACGCGTTGCGGAGTCACCTAGTGCAG”, the binding signal is 8610 fluorescence intensity (a.u.).
Regarding “TCTCCATCCTACGGCCGCATTGTGATACCCTACTACGTCCCGGAGTCACCTAGTGCAG”, the binding signal is 10300 fluorescence intensity (a.u.).
The figure for “TCCCTGGTATATGCACGCGCCCGCGTTCGTGCCGACGCGTCGGAGTCACCTAGTGCAG” is 12800 fluorescence intensity (a.u.).
As to “CCCACGCGCCCACTTTGACCGACCCATCGATCGATCACGACGGAGTCACCTAGTGCAG”, the binding signal is 14300 fluorescence intensity (a.u.).
As for “TTCCTTCTTATTTTTCTGGCCCCAAACCAGTGTTTAACAACGGAGTCACCTAGTGCAG”, the binding signal is 10500 fluorescence intensity (a.u.).
The figure for “AGGGCCTATATGTTAGACTTAATCTTGTCGTTTGTGTTTTCGGAGTCACCTAGTGCAG” is 13200 fluorescence intensity (a.u.).
The figure for “GTCCTGTCGAGCCCGACCCATCATCCACACGCGCCATTGTCGGAGTCACCTAGTGCAG” is 9680 fluorescence intensity (a.u.); for “AAAAATATCTTCACCTATTATAACGCACATTTATTTTTTTCGGAGTCACCTAGTGCAG” it is 9710 fluorescence intensity (a.u.).
The figure for “GCGCTCACCGCCTTCTGTGCCGCCTCACTTGCGCCGGCGACGGAGTCACCTAGTGCAG” is 11500 fluorescence intensity (a.u.); for “GTCAACCCGAGACCCCGAGACCATCGATCCCGCGCCGTCCCGGAGTCACCTAGTGCAG” it is 9500 fluorescence intensity (a.u.).
For the sequence “AATATGACCGACTACTCTACCAGTCAATCCAATCCATCAACGGAGTCACCTAGTGCAG”, the binding signal is 8110 fluorescence intensity (a.u.).
With “GCCCTAGTGGAGGGCGGCATGGTCTATTTTTGTAATTTTTCGGAGTCACCTAGTGCAG”, the binding signal was 10000 fluorescence intensity (a.u.).
The figure for “CCATTGTTCCGATTGCCGTCTCTTGTTGCATGTGCATTCCCGGAGTCACCTAGTGCAG” is 10200 fluorescence intensity (a.u.); for “AGCTCGCGGATTGGGTGGTGGTGGTGGTGGAGCCCGGAGTCGGAGTCACCTAGTGCAG” it is 9240 fluorescence intensity (a.u.); for “CTATTGTCTTGTTCATCTGTTTTTCTTGTTAACAACCATTCGGAGTCACCTAGTGCAG” it is 13000 fluorescence intensity (a.u.).
Take “CACCACCGTTTTGACTCCTCTCAGACACACAAGCTGCAGGCGGAGTCACCTAGTGCAG”: the binding signal was 8160 fluorescence intensity (a.u.).
Regarding “ATGTTTCACTCATTGGTCAACTAGAACATTTGACCAACCACGGAGTCACCTAGTGCAG”, the binding signal was 15000 fluorescence intensity (a.u.).
The figure for “ACATCGTCCCATCAACGCTGCGACGCCACCATTTAATTCCCGGAGTCACCTAGTGCAG” is 12500 fluorescence intensity (a.u.); for “GTGTCTACATGAACATTTTTTTTATTTATTTGCGTGAAAACGGAGTCACCTAGTGCAG” it is 8070 fluorescence intensity (a.u.).
The figure for “AGGTGCCATGAGCTTCTACGTTTTAATTGCATTCCCCGTACGGAGTCACCTAGTGCAG” is 9720 fluorescence intensity (a.u.).
With “TTGCCTGTGTTGGTGTATGTACGCCGTGTTTAGTTTATTGCGGAGTCACCTAGTGCAG”, the binding signal is 8820 fluorescence intensity (a.u.).
Take “CCTAACATGGCCTGGCTACTTCTTCCACCATTCAACAGCACGGAGTCACCTAGTGCAG”: the binding signal is 9600 fluorescence intensity (a.u.).
The figure for “ATTATTGCTTTTGAGTCGGACTTTGTTTTTTCGTTTTTACCGGAGTCACCTAGTGCAG” is 10600 fluorescence intensity (a.u.).
The figure for “TCCACTGTCACAATCCTGAACCTGCCATGACATATCAGCTCGGAGTCACCTAGTGCAG” is 10000 fluorescence intensity (a.u.).
The figure for “AACGGCCGACAGCCCTCTGCCCCAGAAGCCAACAATAACGCGGAGTCACCTAGTGCAG” is 8750 fluorescence intensity (a.u.); for “TTTCTATTGCATTTTATCTCATCGTATCACATTCTGTTCTCGGAGTCACCTAGTGCAG” it is 8080 fluorescence intensity (a.u.).
As for “AATAATTTCATACTATTGGGAGTTGGGACCTTATCTTGCACGGAGTCACCTAGTGCAG”, the binding signal was 9350 fluorescence intensity (a.u.).
Consider “AACACACACACACACACACACACACACATTCAGACAGAACCGGAGTCACCTAGTGCAG”, for which the binding signal is 11400 fluorescence intensity (a.u.).
On to “CGTTTTACCTTCCACAACCACAATCCACAGCCTTTGTACACGGAGTCACCTAGTGCAG”, for which the binding signal is 8880 fluorescence intensity (a.u.).
With “ACACCGATCTTCGCGACATGGACTACCTACCACCCTTTCTCGGAGTCACCTAGTGCAG”, the binding signal is 10100 fluorescence intensity (a.u.).
The figure for “CCCCTCGCCGCCCTCTCTCTCACAGTCTCACGCATCCCATCGGAGTCACCTAGTGCAG” is 8440 fluorescence intensity (a.u.).
The figure for “GTGGTTTACTTTCTCATCCTAGGTAGCTTGTCTCCATTGTCGGAGTCACCTAGTGCAG” is 8950 fluorescence intensity (a.u.).
